Results taken from PubChem BioAssay AID2685 (National Center for Advancing Translational Sciences (NCATS), 2010).
The campaign covered roughly 320,000 compounds. About 2,100 (0.66%) were called active. The inconclusive results got no clear call from the source; some entries with a clear call stand among them for comparison. The call rests on the fitted dose curve; in most records, active means well fitted inhibition curve with a large enough effect in the signal ratio, with a control signal flat (not every such curve was filed as active); inconclusive means small, poorly fitted or top-dose-only effect, or effect the other way, or a change in a side signal; inactive means flat fitted curve, though single readings scatter; the % refers to the signal ratio. Potencies beside an inconclusive call are fits to weak or partial responses and may not hold up.

assay: qHTS Assay for Lipid Storage Modulators in Drosophila S3 Cells; conditions: BODIPY lipid droplet fluorescence, 18-24 h, cells fed with added oleic acid; lipid storage change, negative = inhibition: at 46.1 µM (top of the series) unless noted
How it was run: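 Drosophila S3 cells got compounds at several concentrations plus oleic acid (400 uM solution). Laser-scanning cytometry with 488 nm excitation read lipid droplets at 500-530 nm and cells at 575-640 nm. Percent activity was relative to 20 uM Triacsin C.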
On the % scale 0 is the no-effect control and ±100 the full control effect; potency means the concentration at half of the fitted maximal effect.

SMILES | lipid storage change, negative = inhibition | Potency
Cc1ccc(CN2CCN(Cc3cnn(-c4ccc(Cl)cc4)c3)CC2CCO)o1 (stereo unspecified) | inconclusive: 26% | –
CCOC(=O)c1cccc(NC(=O)Nc2ccc(OCC)cc2)c1 | inconclusive: 20.2% | –
Cc1ccc(C)c(NC(=O)/C(C#N)=C/c2ccc(Sc3nncn3C)c([N+](=O)[O-])c2)c1 | inconclusive: 13.6% | –
Cc1cc(C(C)(C)C)cc(C)c1Cn1c2[n+](c3ccc(C(F)(F)F)cc31)CCCCC2 | inconclusive: -12.3% | –
N/C(=N\OCc1ccc([N+](=O)[O-])cc1)c1ccncc1 | inconclusive: 13.9% | –
C/C(=N\NC(=O)c1cc(C2CC2)nc2ccccc12)c1ccc(C)s1 | inconclusive: -1.21% | –
O=S1(=O)CC=C(CSc2nc3ccccc3[nH]2)C1 | inconclusive: 8.67% | –
C/C(N)=C(/C#N)C(=O)COC(=O)CNC(=O)c1ccc(Cl)cc1Cl | inconclusive: 40.4% | –
CCS(=O)(=O)NCCNc1ccc([N+](=O)[O-])cc1 | inconclusive: 136% | –
Cc1nnc(SCC(=O)N2CCCCCC2)n(N)c1=O | inconclusive: -44.2% | –
Nc1cc(=O)nc(SCC(=O)NCc2ccccc2)n1CCc1ccccc1 | inconclusive: 17.7% | –
Cc1cc(Cl)ccc1NC(=O)CSc1nnc(-c2ccncc2)n1Cc1ccco1 | inconclusive: -10.1% | –
CCSc1nnc2c(n1)OC(C)(C)Nc1ccccc1-2 | – | inconclusive: 0.651 µM [activator, full curve, poor fit]
Cc1ccc(C2C(C#N)=C(N)Oc3c2oc(CO)cc3=O)o1 (stereo unspecified) | inconclusive: -2.43% | –
N#Cc1ccccc1NC(=O)COc1c(Br)cc(Br)c2cccnc12 | inconclusive: 25.1% | –
CN1C(=O)CC(N2CCN(c3ccccn3)CC2)C1=O (stereo unspecified) | inconclusive: 44.8% | –
Cc1ccccc1NC(=O)C1CCN(C(=O)N2CCOc3ccccc32)CC1 | inconclusive: 9.42% | –
CCc1ccccc1NC(=O)CN1CCN(C(=O)CCC(=O)N2CCC(c3ccccc3)=N2)CC1 | inconclusive: -58.4% | –
COC(=O)C(O)(NC(=O)c1ccncc1)C(F)(F)F (stereo unspecified) | – | inconclusive: 2.91 µM [falling, partial curve]
O=C(O)/C=C/C(=O)Nc1ccc(S(=O)(=O)Nc2nccs2)cc1 | inconclusive: -2.95% | –
COc1ccc(CCNC(=O)c2cc3c(=O)n4ccccc4nc3n(CCCN3CCOCC3)c2=N)cc1 | inconclusive: 18.1% | –
C=CCC(NC(=O)c1ccc(C#N)cc1)C(=O)NCCC (stereo unspecified) | inconclusive: -23% | –
O=C(NCCc1ccccn1)c1nc(Cn2ccc([N+](=O)[O-])n2)no1 | inconclusive: -104% | –
Cc1ccc(-n2cc(CN3CCC(O)(c4ccccn4)CC3)c(-c3ccc(F)cc3)n2)cc1 | inconclusive: -20.3% | –
COc1ccc(OC)c(NC(=O)CCCNC(=O)Cn2cnc3sc(C)c(C)c3c2=O)c1 | – | active: 3.66 µM
O=C(CN1C(=O)COc2ccccc21)NCCN1CCCC1 | – | inconclusive: 29.1 µM [falling, single point]

Reprinted at random: 3 records from the list.
SMILES | lipid storage change, negative = inhibition | Potency
C/C(=N\NC(=O)c1cc(C2CC2)nc2ccccc12)c1ccc(C)s1 | inconclusive: -1.21% | –
CCOC(=O)c1cccc(NC(=O)Nc2ccc(OCC)cc2)c1 | inconclusive: 20.2% | –
Cc1ccccc1NC(=O)C1CCN(C(=O)N2CCOc3ccccc32)CC1 | inconclusive: 9.42% | –

Next part.

SMILES | lipid storage change, negative = inhibition | Potency
CCc1ccccc1OCC(=O)Nc1ccc(C)c(S(=O)(=O)N2CCCCCC2)c1 | – | inconclusive: 1.3 µM [falling, partial curve]
CCOc1cc(N2CCOCC2)c(OCC)cc1NC(=O)Cc1ccccc1OC | inconclusive: -48.7% | –
O=C(NCCCN1CCCCC1)C1(S(=O)(=O)c2ccc(Cl)cc2)CC1 | inconclusive: -0.105% | –
COc1ccc2c(c1)CCc1cc(C(=O)N3CCN(c4ccc(N5CCOCC5)nn4)CC3)sc1-2 | inconclusive: 43.2% | –
Cc1ccc(NC(=O)C2CC3CCC2C3)c(Br)c1 (stereo unspecified) | inconclusive: 48.4% | –
COc1ccc(C(C(=O)NC(C)(C)C)N(C(=O)CCC(=O)Nc2cc(C)on2)c2ccc3c(c2)OCCO3)cc1 (stereo unspecified) | – | inconclusive: 29.1 µM [activator, single point]
Cc1c(Cl)cccc1NC(=O)CN1C(=O)CSc2ncccc21 | inconclusive: 62.5% [activator] | –
COc1cc(N2CCCC2)c(OC)cc1/C=C(/C#N)c1cccc(F)c1 | – | inconclusive: 29.1 µM [cytotoxic, single point]
Cc1ccc(C23CC4CC(CC(NC(=O)N5CCN(C)CC5)(C4)C2)C3)cc1 | inconclusive: -59.9% | –
COc1cccc(CC(=O)n2nc(N)c3cc4ccc(OC)cc4nc32)c1 | – | inconclusive: 0.0052 µM [falling, full curve, poor fit]
CSc1nsc(SCC(=O)Nc2ccccc2F)n1 | – | inconclusive: 2.31 µM [activator, partial curve]
COc1ccc(C2/C(=C(/O)c3ccccc3)C(=O)C(=O)N2C)c(OC)c1 (stereo unspecified) | inconclusive: -9.03% | –
CCOc1cccc(C(=O)Nc2ccc(NC(=O)c3cc4ccccc4o3)c(OC)c2)c1 | inconclusive: -1.07% | –
COc1ccccc1OCCn1nnc2ccccc21 | inconclusive: -13.6% | –
CC(C)(C)C(=O)NC(=C(Cl)Cl)P(=O)(O)O | inconclusive: 34.1% | –
CCCCc1c(O)nc(SCC(=O)N2CCCCC2)n(-c2ccccc2C)c1=O | inconclusive: 54.1% | –
Cn1c(C(=O)O)ccc1S(=O)(=O)N(Cc1ccccc1)Cc1ccccc1 | inconclusive: 5.41% | –
O=C1N=C(N2CCCCC2)S/C1=C\c1ccccc1F | inconclusive: 30.8% | –
O=C(Nc1ccc(Br)c2cccnc12)c1ccc(Cn2cc(Cl)cn2)o1 | – | inconclusive: 0.92 µM [activator, full curve, poor fit]
Nc1nccnc1C(=O)OCC(=O)NCCc1ccc(S(N)(=O)=O)cc1 | inconclusive: -12.6% | –
Cc1ccc(S(=O)(=O)Nc2cc3c(cc2N2CCOCC2)n(C)c(=O)c(=O)n3C)cc1 | – | inconclusive: 6.51 µM [falling, single point]
O=c1sc2ccccc2c(N2CCCC2)c1[N+](=O)[O-] | – | inconclusive: 11.6 µM [cytotoxic, partial curve]
O=C(NCCN1CCOCC1)c1sc2ccccc2c1Cl | inactive | –
CCCCNC(=O)[C@]1(C)CCC[C@@]2(C)C3CC[C@@]4(C)C[C@]3(CCC21)CC4=O (stereo partly specified) | – | active: 0.651 µM
O=C(NNC(=O)c1ccc[nH]1)Nc1cccc(C(F)(F)F)c1 | – | inconclusive: 29.1 µM [cytotoxic, single point]
O=C(Nc1cccc(C(=O)O)c1)/C(=C/c1ccc([N+](=O)[O-])cc1)NC(=O)c1ccccc1 | – | inconclusive: 0.0184 µM [falling, full curve, poor fit]

SMILES | lipid storage change, negative = inhibition | Potency
C=CCc1cccc(/C=N/NC(=O)c2ccc3nc[nH]c3c2)c1O | – | inconclusive: 20.6 µM [falling, single point]
CCN1C(=O)[C@H]2[C@@H](c3ccc(C)cc3)N3C(=O)N(c4ccc(C(F)(F)F)cc4)C(=O)[C@@]3(CC(C)C)[C@H]2C1=O | – | active: 18.4 µM
Cc1ccc(N2C(=O)NC(NC(=O)C(C)(C)C)(C(F)(F)F)C2=O)cc1C (stereo unspecified) | inconclusive: -52.8% | –
Cc1ccc(S(=O)(=O)Nc2nc3ccc(N)cc3s2)cc1 | inconclusive: 482% | –
CSCC(C)N1CCC(n2nccc2NC(=O)c2ccc3c(c2)OCO3)CC1 (stereo unspecified) | – | inconclusive: 29.1 µM [activator, single point]
CCCN(C(=O)CCNC(=O)Cn1cnc2ccccc2c1=O)c1cccc(Cl)c1 | – | inconclusive: 6.51 µM [falling, single point]
C=CCN1C(=O)CSc2ccc(C(=O)NCCC3=CCCCC3)cc21 | – | inconclusive: 2.91 µM [rising, partial curve]
O=C(NNc1c2ccccc2nc2ccccc12)c1ccc(O)cc1 | – | active: 16.4 µM
O=C(NCCCn1ccnc1)C(=O)NCC1OCCN1S(=O)(=O)c1ccc(F)cc1 (stereo unspecified) | inconclusive: 14% | –
COc1ccc(C(=O)NCc2csc(C(C)C)n2)cc1OC1CCN(C(C)=O)CC1 | – | inconclusive: 2.06 µM [activator, partial curve, poor fit]
CC1CN(C(=O)Nc2ccc(F)cc2F)CC(C)O1 (stereo unspecified) | – | inconclusive: 2.91 µM [activator, partial curve, poor fit]
COc1cccc(S(=O)(=O)Nc2ccc3c(c2)OCCO3)c1 | inconclusive: -74.2% | –
COc1ccccc1Nc1nnc(SCC(=O)NC2CC2)s1 | inactive | –
CN(Cc1c(F)cccc1Cl)C(=O)CNC(=O)c1ccc2c(c1)OCO2 | inconclusive | –
CCN(CC)CCNCC(O)(c1ccc(Cl)cc1)c1ccc(Cl)cc1 | inconclusive: -9.67% | –
CC1CCN(CC(=O)Nc2ccc3c(c2)OCO3)CC1 | inconclusive | –
CC(C)[C@H](NC(=O)c1ccc(Cl)c([N+](=O)[O-])c1)C(=O)NCc1ccc(Cl)cc1Cl | – | inconclusive: 29.1 µM [activator, single point]
CC(C)CCN(C(=O)c1csnn1)C(C(=O)NC1CCCC1)c1ccc(F)cc1 (stereo unspecified) | inconclusive: 34.1% | –
O=C(c1ccc(F)cc1)C1CCN(Cc2cn[nH]c2-c2ccc(F)cc2)CC1 | inconclusive: 13% | –
O=C(NCC1CCCO1)C(c1ccncc1)N(Cc1cccs1)C(=O)Cn1nnc(-c2ccc(F)cc2)n1 (stereo unspecified) | inconclusive: -3.6% | –
CCCN(CCC)S(=O)(=O)c1ccc(NC(=O)c2cc(C(=O)OC)cc([N+](=O)[O-])c2)cc1 | inconclusive: -33.4% | –
Cc1cccc(OCC(=O)N(C)c2c(N)n(Cc3ccccc3)c(=O)[nH]c2=O)c1C | – | inconclusive: 0.58 µM [falling, partial curve]
Cc1cc(NS(=O)(=O)c2ccc(C3CCCCC3)cc2)no1 | inconclusive: 8.03% | –
Cc1cc(NC(=O)CSc2nnc(-c3ccoc3C)o2)no1 | inconclusive: 2.29% | –

Individual results from the list.
`O=C(NCCCn1ccnc1)C(=O)NCC1OCCN1S(=O)(=O)c1ccc(F)cc1` (stereo unspecified) | lipid storage change, negative = inhibition: inconclusive: 14%
`O=C(NNc1c2ccccc2nc2ccccc12)c1ccc(O)cc1` | Potency: active: 16.4 µM
